This assay concerns the target SLIT3 (human (endogenous in SCAP)) (UniProt O75094). The experiment in a line: co-IP; immunoprecipitation of SLIT3 from SCAP, ROBO2 and ROBO3 detected in the precipitate; cells with or without rhSLIT3 treatment (more ROBO2 and ROBO3 co-precipitated after rhSLIT3).

Protein sequences, listed by entry. Tags and fused reporters are not part of them. Residues count along the entry.
UniProt O75094, residues 34-1523: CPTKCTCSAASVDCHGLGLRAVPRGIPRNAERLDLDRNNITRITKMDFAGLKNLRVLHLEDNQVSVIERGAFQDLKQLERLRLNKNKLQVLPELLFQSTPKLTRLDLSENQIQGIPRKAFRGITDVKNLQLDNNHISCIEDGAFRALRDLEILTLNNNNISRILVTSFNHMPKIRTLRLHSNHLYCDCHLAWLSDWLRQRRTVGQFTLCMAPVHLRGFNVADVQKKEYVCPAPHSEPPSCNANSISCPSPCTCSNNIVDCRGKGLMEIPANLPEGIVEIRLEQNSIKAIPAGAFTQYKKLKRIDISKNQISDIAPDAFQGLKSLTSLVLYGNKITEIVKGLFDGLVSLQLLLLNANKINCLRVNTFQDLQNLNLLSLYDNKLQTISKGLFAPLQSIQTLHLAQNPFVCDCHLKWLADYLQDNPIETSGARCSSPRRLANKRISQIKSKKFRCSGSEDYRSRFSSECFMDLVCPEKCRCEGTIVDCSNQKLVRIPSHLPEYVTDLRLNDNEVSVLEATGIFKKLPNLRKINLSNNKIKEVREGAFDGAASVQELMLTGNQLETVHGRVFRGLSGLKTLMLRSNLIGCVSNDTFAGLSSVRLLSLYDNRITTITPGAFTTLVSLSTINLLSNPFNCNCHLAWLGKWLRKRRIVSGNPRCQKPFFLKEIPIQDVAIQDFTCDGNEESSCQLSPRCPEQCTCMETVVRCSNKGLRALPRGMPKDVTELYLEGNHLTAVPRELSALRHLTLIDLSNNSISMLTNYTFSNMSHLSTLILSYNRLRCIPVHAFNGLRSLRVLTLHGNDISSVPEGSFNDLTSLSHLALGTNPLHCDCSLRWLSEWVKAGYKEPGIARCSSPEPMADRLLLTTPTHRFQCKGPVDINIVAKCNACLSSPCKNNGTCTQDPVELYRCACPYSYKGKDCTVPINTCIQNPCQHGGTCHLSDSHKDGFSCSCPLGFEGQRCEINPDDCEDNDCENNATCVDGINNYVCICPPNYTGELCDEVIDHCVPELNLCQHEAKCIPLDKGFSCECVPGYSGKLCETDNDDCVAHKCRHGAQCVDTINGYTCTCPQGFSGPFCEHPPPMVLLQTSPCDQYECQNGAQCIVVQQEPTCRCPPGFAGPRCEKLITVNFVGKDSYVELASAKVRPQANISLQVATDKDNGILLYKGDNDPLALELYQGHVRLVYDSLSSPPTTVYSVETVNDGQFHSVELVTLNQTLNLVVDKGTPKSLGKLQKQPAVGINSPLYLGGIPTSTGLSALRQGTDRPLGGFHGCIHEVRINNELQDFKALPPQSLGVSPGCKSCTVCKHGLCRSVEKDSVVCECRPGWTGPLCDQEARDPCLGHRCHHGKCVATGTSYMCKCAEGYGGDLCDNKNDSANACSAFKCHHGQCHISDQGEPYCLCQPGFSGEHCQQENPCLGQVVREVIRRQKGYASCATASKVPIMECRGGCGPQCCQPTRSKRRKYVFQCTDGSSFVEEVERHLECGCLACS
UniProt Q9HCK4, residues 22-1378: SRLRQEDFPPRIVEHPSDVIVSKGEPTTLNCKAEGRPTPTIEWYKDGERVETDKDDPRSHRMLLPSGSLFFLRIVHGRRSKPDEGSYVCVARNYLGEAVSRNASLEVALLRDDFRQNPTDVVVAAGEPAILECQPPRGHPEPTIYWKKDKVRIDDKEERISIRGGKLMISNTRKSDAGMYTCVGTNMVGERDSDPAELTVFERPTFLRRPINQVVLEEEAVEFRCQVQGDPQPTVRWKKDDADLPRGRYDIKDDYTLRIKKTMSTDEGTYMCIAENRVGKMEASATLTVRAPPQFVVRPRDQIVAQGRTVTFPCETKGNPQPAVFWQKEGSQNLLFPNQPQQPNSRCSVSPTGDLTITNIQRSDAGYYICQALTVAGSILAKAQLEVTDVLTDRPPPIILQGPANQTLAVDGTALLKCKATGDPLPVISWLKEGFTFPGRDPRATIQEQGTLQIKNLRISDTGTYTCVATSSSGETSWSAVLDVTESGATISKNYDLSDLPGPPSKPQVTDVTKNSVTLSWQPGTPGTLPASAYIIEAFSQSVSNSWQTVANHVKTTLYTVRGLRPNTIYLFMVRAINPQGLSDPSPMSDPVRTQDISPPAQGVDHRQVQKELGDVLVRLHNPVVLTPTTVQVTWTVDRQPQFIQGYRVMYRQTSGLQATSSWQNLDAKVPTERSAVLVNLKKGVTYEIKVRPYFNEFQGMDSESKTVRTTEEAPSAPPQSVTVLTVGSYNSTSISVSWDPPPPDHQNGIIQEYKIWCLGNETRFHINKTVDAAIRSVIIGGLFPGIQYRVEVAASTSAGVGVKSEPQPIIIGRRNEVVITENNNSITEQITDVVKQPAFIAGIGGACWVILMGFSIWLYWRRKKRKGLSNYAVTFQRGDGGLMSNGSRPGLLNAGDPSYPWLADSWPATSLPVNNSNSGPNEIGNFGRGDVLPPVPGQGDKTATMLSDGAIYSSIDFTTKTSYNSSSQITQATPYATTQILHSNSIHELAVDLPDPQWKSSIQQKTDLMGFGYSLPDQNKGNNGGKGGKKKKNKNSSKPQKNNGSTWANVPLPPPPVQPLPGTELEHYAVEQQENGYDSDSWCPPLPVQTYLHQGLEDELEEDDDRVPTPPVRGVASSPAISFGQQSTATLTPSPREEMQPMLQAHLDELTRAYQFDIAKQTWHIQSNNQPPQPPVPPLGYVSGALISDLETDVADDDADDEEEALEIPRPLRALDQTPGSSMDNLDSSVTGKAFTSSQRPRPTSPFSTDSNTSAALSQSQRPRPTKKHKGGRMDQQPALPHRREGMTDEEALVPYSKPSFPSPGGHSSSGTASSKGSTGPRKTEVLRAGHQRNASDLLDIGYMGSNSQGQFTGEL

No constants are given. Whether binding was seen depends on the method and setting. In cells and extracts the contact can be indirect. Some entries that bind do so weakly or less than the wild type.

Consider “ROBO2 (from UniProt Q9HCK4 22-1378) (receptor)”, for which the binding entry is “binds”.

B1: ROBO3 (receptor, UniProt Q96MS0 21-1386)
chain: GDISNSSELLLGFNSSLAALNHTLLPPGDPSLNGSRVGPEDAMPRIVEQPPDLLVSRGEPATLPCRAEGRPRPNIEWYKNGARVATVREDPRAHRLLLPSGALFFPRIVHGRRARPDEGVYTCVARNYLGAAASRNASLEVAVLRDDFRQSPGNVVVAVGEPAVLECVPPRGHPEPSVSWRKDGARLKEEEGRITIRGGKLMMSHTLKSDAGMYVCVASNMAGERESAAAEVMVLERPSFLRRPVNQVVLADAPVTFLCEVKGDPPPRLRWRKEDGELPTGRYEIRSDHSLWIGHVSAEDEGTYTCVAENSVGRAEASGSLSVHVPPQLVTQPQDQMAAPGESVAFQCETKGNPPPAIFWQKEGSQVLLFPSQSLQPTGRFSVSPRGQLNITAVQRGDAGYYVCQAVSVAGSILAKALLEIKGASLDGLPPVILQGPANQTLVLGSSVWLPCRVTGNPQPSVRWKKDGQWLQGDDLQFKTMANGTLYIANVQEMDMGFYSCVAKSSTGEATWSGWLKMREDWGVSPDPPTEPSSPPGAPSQPVVTEITKNSITLTWKPNPQTGAAVTSYVIEAFSPAAGNTWRTVADGVQLETHTVSGLQPNTIYLFLVRAVGAWGLSEPSPVSEPVRTQDSSPSRPVEDPWRGQQGLAEVAVRLQEPIVLGPRTLQVSWTVDGPVQLVQGFRVSWRVAGPEGGSWTMLDLQSPSQQSTVLRGLPPGTQIQIKVQAQGQEGLGAESLSVTRSIPEEAPSGPPQGVAVALGGDGNSSITVSWEPPLPSQQNGVITEYQIWCLGNESRFHLNRSAAGWARSAMLRGLVPGLLYRTLVAAATSAGVGVPSAPVLVQLPSPPDLEPGLEVGAGLAVRLARVLREPAFLAGSGAACGALLLGLCAALYWRRKQRKELSHYTASFAYTPAVSFPHSEGLSGASSRPPMGLGPAPYSWLADSWPHPSRSPSAQEPRGSCCPSNPDPDDRYYNEAGISLYLAQTARGTAAPGEGPVYSTIDPAGEELQTFHGGFPQHPSGDLGPWSQYAPPEWSQGDSGAKGGKVKLLGKPVQMPSLNWPEALPPPPPSCELSCLEGPEEELEGSSEPEEWCPPMPERSHLTEPSSSGGCLVTPSRRETPSPTPSYGQQSTATLTPSPPDPPQPPTDMPHLHQMPRRVPLGPSSPLSVSQPMLGIREARPAGLGAGPAASPHLSPSPAPSTASSAPGRTWQGNGEMTPPLQGPRARFRKKPKALPYRRENSPGDLPPPPLPPPEEEASWALELRAAGSMSSLERERSGERKAVQAVPLAAQRVLHPDEEAWLPYSRPSFLSRGQGTSTCSTAGSNSSRGSSSSRGSRGPGRSRSRSQSRSQSQRPGQKRREEPR
Take B1: the binding entry is “binds”.

The record behind these values is publication PMC13071080.
